Assay results published in the supplement of paper PMC10849652.
Some of the results follow.

Amino acid sequences for entries named in this document (tags omitted). A change or cut given only in a name is not applied to a line headed by its entry.
UniProt Q9NYH9: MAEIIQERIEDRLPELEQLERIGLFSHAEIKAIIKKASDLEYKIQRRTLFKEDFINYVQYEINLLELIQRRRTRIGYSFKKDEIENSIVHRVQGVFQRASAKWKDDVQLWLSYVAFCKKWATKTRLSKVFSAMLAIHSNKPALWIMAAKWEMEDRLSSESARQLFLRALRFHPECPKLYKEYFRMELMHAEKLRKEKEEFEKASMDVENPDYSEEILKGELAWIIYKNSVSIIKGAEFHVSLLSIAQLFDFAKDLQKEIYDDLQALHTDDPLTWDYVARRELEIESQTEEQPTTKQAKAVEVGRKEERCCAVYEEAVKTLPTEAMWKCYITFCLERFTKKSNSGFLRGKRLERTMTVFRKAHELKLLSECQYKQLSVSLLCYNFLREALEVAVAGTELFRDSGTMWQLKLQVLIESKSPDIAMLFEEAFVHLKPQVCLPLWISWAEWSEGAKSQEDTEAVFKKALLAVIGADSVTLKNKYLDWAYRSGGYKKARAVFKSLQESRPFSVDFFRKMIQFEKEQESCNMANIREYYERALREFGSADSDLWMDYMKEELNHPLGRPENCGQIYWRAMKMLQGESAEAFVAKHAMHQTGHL
UniProt Q14119: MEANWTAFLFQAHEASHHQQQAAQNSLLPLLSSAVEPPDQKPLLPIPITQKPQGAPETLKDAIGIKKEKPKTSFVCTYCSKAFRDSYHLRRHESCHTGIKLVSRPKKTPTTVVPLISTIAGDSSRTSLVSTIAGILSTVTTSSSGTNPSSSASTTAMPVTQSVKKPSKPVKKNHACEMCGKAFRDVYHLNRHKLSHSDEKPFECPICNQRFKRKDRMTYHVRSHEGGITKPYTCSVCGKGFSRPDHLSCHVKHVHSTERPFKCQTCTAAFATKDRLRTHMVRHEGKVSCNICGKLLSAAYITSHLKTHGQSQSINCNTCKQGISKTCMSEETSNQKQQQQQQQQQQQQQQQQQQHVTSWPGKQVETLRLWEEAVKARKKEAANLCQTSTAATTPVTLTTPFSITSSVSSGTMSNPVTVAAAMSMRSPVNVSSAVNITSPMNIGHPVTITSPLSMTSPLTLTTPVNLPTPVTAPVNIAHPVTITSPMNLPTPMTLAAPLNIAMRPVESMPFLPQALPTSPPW
UniProt O14949: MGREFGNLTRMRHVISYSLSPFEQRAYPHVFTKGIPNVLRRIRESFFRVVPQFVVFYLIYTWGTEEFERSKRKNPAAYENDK
UniProt Q9HAU5: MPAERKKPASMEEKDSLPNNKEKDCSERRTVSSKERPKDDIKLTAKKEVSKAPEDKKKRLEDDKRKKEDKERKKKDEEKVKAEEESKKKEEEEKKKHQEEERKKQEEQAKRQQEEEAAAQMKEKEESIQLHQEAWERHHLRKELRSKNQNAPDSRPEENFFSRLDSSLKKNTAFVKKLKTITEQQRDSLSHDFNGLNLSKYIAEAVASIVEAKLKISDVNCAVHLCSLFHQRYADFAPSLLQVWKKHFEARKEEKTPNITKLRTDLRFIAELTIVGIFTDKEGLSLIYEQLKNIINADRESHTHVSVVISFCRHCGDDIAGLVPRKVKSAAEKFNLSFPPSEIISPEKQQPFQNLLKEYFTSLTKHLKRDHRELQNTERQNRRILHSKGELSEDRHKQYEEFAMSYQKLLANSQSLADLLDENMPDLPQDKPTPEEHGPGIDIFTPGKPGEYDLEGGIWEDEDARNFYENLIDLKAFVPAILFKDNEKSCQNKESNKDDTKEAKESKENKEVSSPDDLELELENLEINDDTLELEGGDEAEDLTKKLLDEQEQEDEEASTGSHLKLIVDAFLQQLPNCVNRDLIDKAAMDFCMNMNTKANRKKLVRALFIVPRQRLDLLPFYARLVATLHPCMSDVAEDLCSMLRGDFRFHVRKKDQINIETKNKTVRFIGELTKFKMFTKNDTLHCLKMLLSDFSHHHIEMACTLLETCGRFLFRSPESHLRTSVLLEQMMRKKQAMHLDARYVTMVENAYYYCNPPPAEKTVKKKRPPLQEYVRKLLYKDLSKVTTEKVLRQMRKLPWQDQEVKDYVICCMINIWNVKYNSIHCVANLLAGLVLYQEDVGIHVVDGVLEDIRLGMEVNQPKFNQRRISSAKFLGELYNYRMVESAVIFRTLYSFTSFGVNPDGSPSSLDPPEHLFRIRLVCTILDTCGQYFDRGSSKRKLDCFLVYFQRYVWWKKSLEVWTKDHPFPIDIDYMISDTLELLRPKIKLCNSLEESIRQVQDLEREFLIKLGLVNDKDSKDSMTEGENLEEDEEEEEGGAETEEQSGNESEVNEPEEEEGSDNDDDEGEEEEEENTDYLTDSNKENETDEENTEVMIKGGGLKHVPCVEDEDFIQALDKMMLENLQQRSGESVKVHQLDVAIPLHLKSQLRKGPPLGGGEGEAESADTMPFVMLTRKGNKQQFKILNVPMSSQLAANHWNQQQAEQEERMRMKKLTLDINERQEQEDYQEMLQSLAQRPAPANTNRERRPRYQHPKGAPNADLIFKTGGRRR
UniProt Q53GS9: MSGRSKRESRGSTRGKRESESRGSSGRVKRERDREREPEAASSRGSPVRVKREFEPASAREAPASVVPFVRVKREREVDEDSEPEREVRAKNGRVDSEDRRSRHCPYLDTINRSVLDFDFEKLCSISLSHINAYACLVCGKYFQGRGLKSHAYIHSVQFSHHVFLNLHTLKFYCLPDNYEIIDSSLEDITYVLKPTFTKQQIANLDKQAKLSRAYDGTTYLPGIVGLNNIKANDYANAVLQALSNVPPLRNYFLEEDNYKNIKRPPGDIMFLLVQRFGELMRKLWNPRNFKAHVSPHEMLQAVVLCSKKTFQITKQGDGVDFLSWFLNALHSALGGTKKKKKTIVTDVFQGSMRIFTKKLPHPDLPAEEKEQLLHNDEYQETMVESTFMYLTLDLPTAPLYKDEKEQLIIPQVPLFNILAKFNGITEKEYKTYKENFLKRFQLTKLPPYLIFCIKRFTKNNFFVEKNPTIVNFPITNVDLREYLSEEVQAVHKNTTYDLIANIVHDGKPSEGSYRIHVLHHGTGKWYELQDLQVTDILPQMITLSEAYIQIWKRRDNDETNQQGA
UniProt Q16880: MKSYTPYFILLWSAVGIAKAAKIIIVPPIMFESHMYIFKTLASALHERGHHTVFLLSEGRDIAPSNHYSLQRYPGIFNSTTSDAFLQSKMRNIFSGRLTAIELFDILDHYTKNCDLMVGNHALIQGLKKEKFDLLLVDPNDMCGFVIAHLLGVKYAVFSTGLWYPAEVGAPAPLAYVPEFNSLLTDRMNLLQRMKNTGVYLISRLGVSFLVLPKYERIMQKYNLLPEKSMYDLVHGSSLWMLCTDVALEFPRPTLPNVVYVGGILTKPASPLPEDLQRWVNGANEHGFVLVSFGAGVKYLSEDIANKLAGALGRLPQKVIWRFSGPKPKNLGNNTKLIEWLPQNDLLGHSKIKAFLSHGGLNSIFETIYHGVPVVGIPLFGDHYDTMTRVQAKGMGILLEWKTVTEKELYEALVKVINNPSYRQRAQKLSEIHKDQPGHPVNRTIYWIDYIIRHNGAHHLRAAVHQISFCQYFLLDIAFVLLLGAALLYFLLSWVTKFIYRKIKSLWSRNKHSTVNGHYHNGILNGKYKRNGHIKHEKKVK
UniProt Q9C0B0: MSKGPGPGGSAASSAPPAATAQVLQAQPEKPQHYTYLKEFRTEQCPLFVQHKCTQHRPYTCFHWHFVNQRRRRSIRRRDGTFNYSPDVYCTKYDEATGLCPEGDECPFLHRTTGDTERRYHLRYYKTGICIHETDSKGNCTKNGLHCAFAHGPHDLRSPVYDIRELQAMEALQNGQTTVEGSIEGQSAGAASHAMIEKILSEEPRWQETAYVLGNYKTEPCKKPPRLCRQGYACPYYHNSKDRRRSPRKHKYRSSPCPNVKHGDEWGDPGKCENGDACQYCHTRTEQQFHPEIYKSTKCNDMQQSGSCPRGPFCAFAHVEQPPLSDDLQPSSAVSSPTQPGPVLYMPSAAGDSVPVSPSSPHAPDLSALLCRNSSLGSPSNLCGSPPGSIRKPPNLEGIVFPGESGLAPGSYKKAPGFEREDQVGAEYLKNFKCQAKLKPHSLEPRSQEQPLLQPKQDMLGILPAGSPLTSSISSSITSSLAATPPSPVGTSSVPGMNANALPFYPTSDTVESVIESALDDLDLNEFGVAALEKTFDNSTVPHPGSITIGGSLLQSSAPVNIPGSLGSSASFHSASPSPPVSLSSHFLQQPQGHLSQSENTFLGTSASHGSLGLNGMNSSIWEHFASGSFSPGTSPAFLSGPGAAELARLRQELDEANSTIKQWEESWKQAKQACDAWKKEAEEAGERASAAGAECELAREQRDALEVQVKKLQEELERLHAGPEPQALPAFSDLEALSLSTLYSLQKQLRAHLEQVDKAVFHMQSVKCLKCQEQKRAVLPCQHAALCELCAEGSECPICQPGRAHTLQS
UniProt P55072, whole entry, looked up: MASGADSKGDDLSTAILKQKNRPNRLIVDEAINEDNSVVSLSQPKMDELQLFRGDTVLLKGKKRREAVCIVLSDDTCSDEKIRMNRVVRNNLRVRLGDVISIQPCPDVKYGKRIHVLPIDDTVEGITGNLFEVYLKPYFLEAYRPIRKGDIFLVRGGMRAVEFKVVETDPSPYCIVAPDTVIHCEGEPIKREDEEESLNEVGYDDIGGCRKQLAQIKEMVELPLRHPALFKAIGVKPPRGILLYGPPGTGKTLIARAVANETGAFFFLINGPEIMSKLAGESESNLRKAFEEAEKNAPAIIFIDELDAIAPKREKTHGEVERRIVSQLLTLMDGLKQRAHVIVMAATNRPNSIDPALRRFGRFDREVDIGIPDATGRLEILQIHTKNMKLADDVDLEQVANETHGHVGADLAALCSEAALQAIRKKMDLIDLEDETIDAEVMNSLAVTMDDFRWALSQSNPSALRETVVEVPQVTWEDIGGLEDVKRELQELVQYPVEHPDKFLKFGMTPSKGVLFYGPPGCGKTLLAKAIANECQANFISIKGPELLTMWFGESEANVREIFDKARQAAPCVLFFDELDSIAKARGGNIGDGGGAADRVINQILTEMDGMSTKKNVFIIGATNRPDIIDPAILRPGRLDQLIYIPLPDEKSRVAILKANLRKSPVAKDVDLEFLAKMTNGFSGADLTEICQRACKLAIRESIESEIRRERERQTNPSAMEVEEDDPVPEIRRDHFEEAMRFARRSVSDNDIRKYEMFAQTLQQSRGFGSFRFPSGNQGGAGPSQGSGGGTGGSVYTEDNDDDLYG
UniProt Q9BRT2: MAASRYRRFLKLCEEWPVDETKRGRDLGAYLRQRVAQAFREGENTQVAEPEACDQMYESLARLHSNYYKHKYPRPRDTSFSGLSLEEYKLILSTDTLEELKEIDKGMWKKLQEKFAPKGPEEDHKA
UniProt P51809, whole entry, looked up: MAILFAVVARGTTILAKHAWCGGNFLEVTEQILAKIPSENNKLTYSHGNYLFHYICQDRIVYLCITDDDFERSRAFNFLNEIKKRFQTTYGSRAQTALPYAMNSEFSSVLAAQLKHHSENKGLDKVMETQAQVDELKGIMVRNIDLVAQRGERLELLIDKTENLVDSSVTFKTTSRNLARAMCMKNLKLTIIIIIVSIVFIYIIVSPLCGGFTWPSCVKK
UniProt P45974: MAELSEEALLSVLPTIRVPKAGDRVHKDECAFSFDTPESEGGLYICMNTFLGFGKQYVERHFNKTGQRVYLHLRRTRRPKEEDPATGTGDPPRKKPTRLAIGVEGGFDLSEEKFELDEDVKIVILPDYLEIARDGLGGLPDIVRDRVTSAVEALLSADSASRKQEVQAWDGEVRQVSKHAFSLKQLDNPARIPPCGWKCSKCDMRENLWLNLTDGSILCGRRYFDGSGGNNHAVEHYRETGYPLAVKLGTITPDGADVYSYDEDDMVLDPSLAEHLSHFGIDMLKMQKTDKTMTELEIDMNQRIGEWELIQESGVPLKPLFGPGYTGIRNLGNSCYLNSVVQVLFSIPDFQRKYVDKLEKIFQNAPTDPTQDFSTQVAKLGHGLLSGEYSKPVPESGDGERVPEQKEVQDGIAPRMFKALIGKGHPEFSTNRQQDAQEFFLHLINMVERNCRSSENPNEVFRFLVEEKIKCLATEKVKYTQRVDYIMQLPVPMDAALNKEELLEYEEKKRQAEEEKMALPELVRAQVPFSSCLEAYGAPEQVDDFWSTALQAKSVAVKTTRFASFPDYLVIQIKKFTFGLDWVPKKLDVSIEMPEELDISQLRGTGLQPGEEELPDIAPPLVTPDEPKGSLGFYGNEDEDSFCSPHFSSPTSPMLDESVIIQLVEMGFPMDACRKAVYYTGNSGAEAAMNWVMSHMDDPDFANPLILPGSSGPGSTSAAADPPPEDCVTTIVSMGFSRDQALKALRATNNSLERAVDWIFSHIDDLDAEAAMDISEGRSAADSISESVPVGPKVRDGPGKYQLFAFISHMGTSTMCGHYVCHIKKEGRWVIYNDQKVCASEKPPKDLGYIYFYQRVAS
UniProt Q9Y3C8: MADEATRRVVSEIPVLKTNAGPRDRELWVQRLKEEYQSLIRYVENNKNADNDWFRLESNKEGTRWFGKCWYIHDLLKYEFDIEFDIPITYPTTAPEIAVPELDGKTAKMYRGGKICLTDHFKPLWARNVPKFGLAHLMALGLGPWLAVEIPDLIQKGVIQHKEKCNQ

Legend:
Experiment in all cases: log2 fold change, soluble protein after heating vs DMSO (PISA); higher = thermal stabilisation; K562 lysate, 10 uM; active = over 0.2 and 3.5 SD of the protein, either way, in both replicates (recomputed)
[1] = compound: NCC(=O)Nc1ccc(-n2nc(C(F)(F)F)cc2-c2ccc3c(ccc4ccccc43)c2)cc1
Summary of the method: (§1)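 K562 pellets were dounce-homogenised in PBS pH 7.4 containing 1 mM MgCl2, and the crude extract, at 1 mg/mL protein, was exposed to 10 μM compound for 30 min. Aliquots were heated for 3 min across 48°C-58°C, pooled, brought to 0.5% NP-40 at 4°C and spun at 21,000xg for 90 min, with the supernatant taken as soluble protein. TMTpro 16plex LC-MS/MS with equalised channel sums quantified that protein. Values are log-two fold changes in thermal stability relative to solvent controls, taken from duplicates.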

vorinostat = compound: O=C(CCCCCCC(=O)Nc1ccccc1)NO [vorinostat]
Summary of the method: as §1

silmitasertib = compound: O=C(O)c1ccc2c(c1)nc(Nc1cccc(Cl)c1)c1ccncc12 [silmitasertib]
Summary of the method: as §1

[2] = compound: O=C1NC(=O)C(c2cnc3ccccn23)=C1c1cn2c3c(cc(F)cc13)CN(C(=O)N1CCCCC1)CC2
Summary of the method: as §1

entospletinib = compound: c1cn2cc(-c3ccc4cn[nH]c4c3)nc(Nc3ccc(N4CCOCC4)cc3)c2n1 [entospletinib]
Summary of the method: as §1

Row | Target | log2 fold change [1] | log2 fold change (vorinostat) | log2 fold change (silmitasertib) | log2 fold change [2] | log2 fold change (entospletinib)
1 | UEVLD (UniProt Q8IX04) | inactive: 0.074 | inactive: 0.074 | inactive: -0.035 | inactive: -0.034 | inactive: -0.027
2 | USP47 isoform 4 (UniProt Q96K76) | inactive: 0.003 | inactive: -0.052 | inactive: 0.023 | inactive: -0.025 | inactive: 0.008
3 | URGCP (UniProt Q8TCY9) | inactive: 0 |  |  |  | 
4 | UPRT (UniProt Q96BW1) | inactive: 0.08 | inactive: -0.081 | inactive: 0.075 | inactive: 0.064 | inactive: 0.011
5 | UNC45A (UniProt Q9H3U1) | inactive: -0.005 | active: -0.588 | inactive: 0.011 | inactive: 0.008 | inactive: 0.01
6 | UNC13B isoform 2 (UniProt O14795) | inactive: -0.058 | inactive: 0.214 | inactive: 0.108 | inactive: 0.012 | inactive: -0.066
7 | UTP6 (UniProt Q9NYH9) | inactive: 0.013 | inactive: -0.296 | inactive: -0.035 | inactive: 0.022 | inactive: 0.007
8 | USF1 (UniProt P22415) | inactive: 0.08 | inactive: -0.303 | inactive: 0.09 | inactive: -0.042 | inactive: 0.034
9 | VAMP3 (UniProt Q15836) | inactive: -0.026 | inactive: 0.136 | inactive: -0.043 | inactive: 0.206 | inactive: -0.069
10 | USP25 (UniProt Q9UHP3) | inactive: -0.01 | inactive: 0.041 | inactive: 0.038 | inactive: -0.014 | inactive: -0.005
11 | UQCRFS1 (UniProt P47985) | inactive: 0.016 | inactive: 0.066 | inactive: -0.011 | inactive: 0.004 | inactive: 0.01
12 | VIM (UniProt P08670) | inactive: 0 | inactive: -0.012 | inactive: -0.005 | inactive: -0.048 | inactive: -0.031
13 | UGP2 (UniProt Q16851) | inactive: 0.012 | inactive: 0.075 | inactive: -0.008 | inactive: -0.002 | inactive: 0.009
14 | USP11 (UniProt P51784) | inactive: 0.052 | inactive: -0.123 | inactive: 0.057 | inactive: 0.015 | inactive: 0.038
15 | USP13 (UniProt Q92995) | inactive: 0.017 | inactive: -0.036 | inactive: 0.089 | inactive: -0.001 | inactive: 0.051
16 | VCPIP1 (UniProt Q96JH7) | inactive: 0.007 | active: 0.894 | inactive: 0.029 | inactive: -0.021 | inactive: 0.006
17 | ULK1 (UniProt O75385) | inactive: 0.059 | inactive: -0.141 | inactive: -0.024 | inactive: -0.004 | inactive: -0.031
18 | USP34 (UniProt Q70CQ2) | inactive: 0.005 | active: -0.208 | inactive: 0.05 | inactive: -0.012 | inactive: -0.005
19 | VEZF1 (UniProt Q14119) | inactive: -0.029 | inactive: -0.127 | inactive: 0.137 | inactive: -0.076 | inactive: -0.014
20 | USP22 (UniProt Q9UPT9) | inactive: -0.069 | active: -0.323 | inactive: -0.045 | inactive: 0.001 | inactive: 0.059
21 | UROD (UniProt P06132) | inactive: 0.017 | inactive: 0.147 | inactive: 0.021 | inactive: -0.017 | inactive: -0.007
22 | VARS (UniProt P26640) | inactive: 0.006 | active: -0.275 | inactive: 0.063 | inactive: 0.022 | inactive: 0.024
23 | USP4 (UniProt Q13107) | inactive: 0.018 | inactive: -0.253 | inactive: 0.045 | inactive: -0.055 | inactive: 0.017
24 | UQCRQ (UniProt O14949) | inactive: -0.016 | inactive: 0.069 | inactive: 0.033 | inactive: -0.02 | inactive: 0.009
25 | VDAC2 isoform 2 (UniProt P45880) | inactive: 0.001 | inactive: 0.181 | inactive: 0.001 | inactive: 0.012 | inactive: 0.002
26 | UGCG (UniProt Q16739) | inactive: 0.057 | inactive: 0.114 | inactive: -0.013 | inactive: -0.056 | 
27 | UPF2 (UniProt Q9HAU5) | inactive: 0.008 | inactive: -0.079 | inactive: -0.023 | inactive: -0.014 | inactive: -0.013
28 | VBP1 (UniProt P61758) | inactive: -0.009 | inactive: 0.056 | inactive: 0.007 | inactive: 0.006 | inactive: -0.003

From entry 19 to 20, copied from above:
Row | Target | log2 fold change [1] | log2 fold change (vorinostat) | log2 fold change (silmitasertib) | log2 fold change [2] | log2 fold change (entospletinib)
19 | VEZF1 (UniProt Q14119) | inactive: -0.029 | inactive: -0.127 | inactive: 0.137 | inactive: -0.076 | inactive: -0.014
20 | USP22 (UniProt Q9UPT9) | inactive: -0.069 | active: -0.323 | inactive: -0.045 | inactive: 0.001 | inactive: 0.059

Full records from above:
UPRT (UniProt Q96BW1) in the list: log2 fold change [1]: inactive: 0.08; log2 fold change (vorinostat): inactive: -0.081; log2 fold change (silmitasertib): inactive: 0.075; log2 fold change [2]: inactive: 0.064; log2 fold change (entospletinib): inactive: 0.011
VBP1 (UniProt P61758) in the list: log2 fold change [1]: inactive: -0.009; log2 fold change (vorinostat): inactive: 0.056; log2 fold change (silmitasertib): inactive: 0.007; log2 fold change [2]: inactive: 0.006; log2 fold change (entospletinib): inactive: -0.003

Next part:

Row | Target | log2 fold change [1] | log2 fold change (vorinostat) | log2 fold change (silmitasertib) | log2 fold change [2] | log2 fold change (entospletinib)
29 | USP7 (UniProt Q93009) | inactive: 0.009 | inactive: -0.18 | inactive: 0.011 | inactive: -0.019 | inactive: 0.014
30 | VAV2 (UniProt P52735) | inactive: -0.027 |  |  |  | 
31 | UFM1 (UniProt P61960) | inactive: -0.247 | inactive: 0.036 | inactive: -0.074 | inactive: -0.109 | inactive: -0.011
32 | USP39 (UniProt Q53GS9) | inactive: 0.021 | inactive: -0.031 | inactive: 0.003 | inactive: -0.028 | inactive: -0.001
33 | UGT8 (UniProt Q16880) | inactive: 0.013 | inactive: 0.223 | inactive: -0.134 | inactive: 0.022 | inactive: 0.034
34 | USP16 (UniProt Q9Y5T5) | inactive: 0.019 | active: -0.272 | inactive: 0.012 | inactive: -0.019 | inactive: -0.031
35 | USP28 isoform 2 (UniProt Q96RU2) | inactive: 0.021 | inactive: -0.141 | inactive: 0.051 | inactive: 0.02 | inactive: -0.007
36 | UPF3B (UniProt Q9BZI7) | inactive: 0.022 | inactive: 0.075 | inactive: -0.02 | inactive: -0.043 | inactive: -0.049
37 | UHRF1BP1L (UniProt A0JNW5) | inactive: 0.049 | inactive: 0.019 | inactive: -0.042 | inactive: -0.024 | inactive: 0
38 | VAPA (UniProt Q9P0L0) | inactive: -0.031 | inactive: 0.075 | inactive: 0.025 | inactive: -0.014 | inactive: 0.033
39 | UNK (UniProt Q9C0B0) | inactive: 0.027 | inactive: -0.024 | inactive: -0.013 | inactive: 0.049 | inactive: -0.011
40 | USF2 (UniProt Q15853) | inactive: -0.019 | inactive: -0.088 | inactive: -0.02 | inactive: -0.03 | inactive: 0.026
41 | VCP (UniProt P55072) | inactive: 0.016 | inactive: 0.13 | inactive: -0.009 | inactive: -0.004 | inactive: 0.005
42 | UQCC2 (UniProt Q9BRT2) | inactive: -0.019 | inactive: 0.121 | inactive: -0.021 | inactive: -0.06 | inactive: -0.039
43 | VAMP7 (UniProt P51809) | inactive: 0 | inactive: -0.103 | inactive: 0.029 | inactive: -0.044 | inactive: 0.01
44 | UFL1 (UniProt O94874) | inactive: -0.007 | inactive: 0.039 | inactive: 0.046 | inactive: -0.013 | inactive: 0.031
45 | VAMP8 (UniProt Q9BV40) | inactive: -0.02 | inactive: 0.09 | inactive: -0.034 | inactive: -0.032 | inactive: -0.077
46 | UQCC1 (UniProt Q9NVA1) | inactive: -0.051 | inactive: 0.071 | inactive: 0.035 | inactive: 0.011 | inactive: 0.02
47 | URI1 (UniProt O94763) | inactive: 0.012 | inactive: 0.014 | inactive: -0.001 | inactive: -0.008 | inactive: -0.011
48 | UNC119B (UniProt A6NIH7) | inactive: -0.076 | inactive: 0.181 | inactive: -0.049 | inactive: -0.023 | inactive: -0.039
49 | USE1 (UniProt Q9NZ43) | inactive: -0.113 | inactive: -0.029 | inactive: 0.028 | inactive: 0.053 | inactive: -0.036
50 | UGDH (UniProt O60701) | inactive: 0.039 | inactive: -0.206 | inactive: 0.001 | inactive: 0.01 | inactive: -0.01
51 | USP5 isoform 2 (UniProt P45974) | inactive: 0.013 | inactive: -0.133 | inactive: 0.02 | inactive: -0.016 | inactive: -0.016
52 | UFD1 isoform 1 (UniProt Q92890) | inactive: -0.004 | inactive: 0.042 | inactive: -0.001 | inactive: -0.013 | inactive: -0.016
53 | UNC93B1 (UniProt Q9H1C4) | inactive: -0.137 | inactive: 0.114 | inactive: 0.143 | inactive: 0.082 | inactive: -0.258
54 | UFC1 (UniProt Q9Y3C8) | inactive: 0.067 | inactive: 0.061 | inactive: 0.005 | inactive: 0.031 | inactive: -0.025
55 | UIMC1 (UniProt Q96RL1) | inactive: 0.044 | inactive: -0.048 | inactive: -0.005 | inactive: 0.004 | inactive: -0.009
